Experimental findings from the supplement of paper PMC4604168 (melanoma cell lines) are described below.

The other results are listed elsewhere or left out. Many values rest on one well or one pass, so single values are uncertain.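 The apoptosis fraction was the count of cleaved-PARP antibody-stained nuclei relative to all DNA-stained nuclei, imaged in 1,536-well plates. Screening doses were set so most cells survived, and baseline and induced cleaved-PARP levels vary greatly across cell lines.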

The test system of the first assay is CBRC017 (line from a melanoma biopsy). The assay is described as follows: cleaved PARP positive nuclei fraction relative to DMSO control; melanoma cells; higher = more apoptosis. The settings on record: library dose: low library concentration; 72 h.
Consider `CC(C)C[C@H](NC(=O)[C@H](Cc1ccccc1)NC(=O)c1cnccn1)B(O)O` [Bortezomib] + O=C(O)c1ccc(-c2c[nH]c3ncc(-c4ccccc4)cc23)cc1C1CCCC1 [GSK650394] (first compound 0.001 µM, partner dose 0.16 µM), for which the “cleaved PARP positive nuclei fraction” value came to 424%.
On the same count and under the same terms, next, `C[C@@H](Oc1cc(-c2cnn(C3CCNCC3)c2)cnc1N)c1c(Cl)ccc(F)c1Cl` [Crizotinib] + C[C@@H]1CCN(C(=O)CC#N)C[C@@H]1N(C)c1ncnc2[nH]ccc12 [CP690550] (first compound 0.2 µM, partner dose 1 µM): 91%; `CC(C)C[C@H](NC(=O)[C@H](Cc1ccccc1)NC(=O)c1cnccn1)B(O)O` [Bortezomib] + Cc1cc(N2CCOCC2)cc2[nH]c(-c3c(NC[C@@H](O)c4cccc(Cl)c4)cc[nH]c3=O)nc12 [BMS536924] (first compound 0.001 µM, partner dose 0.2 µM): 539%.
As for `Nc1ccn([C@@H]2O[C@H](CO)[C@@H](O)C2(F)F)c(=O)n1` [gemcitabine] + CC(C)(C)c1cnc(CSc2cnc(NC(=O)C3CCNCC3)s2)o1 [SNS-032] (first compound 0.0004 µM, partner dose 0.01 µM), the “cleaved PARP positive nuclei fraction” value worked out at 119%.
For `CCCS(=O)(=O)Nc1ccc(F)c(C(=O)c2c[nH]c3ncc(Cl)cc23)c1F` + C=CCn1c(=O)c2cnc(Nc3ccc(N4CCN(C)CC4)cc3)nc2n1-c1cccc(C(C)(C)O)n1 [MK1775] (first compound 0.08 µM, partner dose 0.02 µM), the “cleaved PARP positive nuclei fraction” value is 93.5%.
As to `Nc1ccn([C@@H]2O[C@H](CO)[C@@H](O)C2(F)F)c(=O)n1` [gemcitabine] + CC1(C)NC(=O)N(c2ccc([N+](=O)[O-])c(C(F)(F)F)c2)C1=O [nilutamide] (first compound 0.0004 µM, partner dose 1 µM), the “cleaved PARP positive nuclei fraction” value was 88.8%.
Regarding `CC(C)C[C@H](NC(=O)[C@H](Cc1ccccc1)NC(=O)c1cnccn1)B(O)O` [Bortezomib] + Cc1ccc(NC(=O)c2cccc(N(C)C)c2)cc1NC(=O)c1ccc(O)cc1 [ZM336372] (first compound 0.001 µM, partner dose 2 µM), the “cleaved PARP positive nuclei fraction” value was 256%.
Turning to `CCCS(=O)(=O)Nc1ccc(F)c(C(=O)c2c[nH]c3ncc(Cl)cc23)c1F` + CN(NC(=O)CC(=O)NN(C)C(=S)c1ccccc1)C(=S)c1ccccc1 [STA4783] (first compound 0.08 µM, partner dose 0.006 µM), the “cleaved PARP positive nuclei fraction” value came to 142%.
As for `O=C(O)[C@@H]1[O][Sb](=[O])([O][Sb]2(=[O])[O][C@H]([C@H](O)CO)[C@H](O)[C@H](C(=O)O)[O]2)[O][C@H]([C@H](O)CO)[C@@H]1O` (some centres undefined) [stibogluconate] + C[C@@H]1CCN(C(=O)CC#N)C[C@@H]1N(C)c1ncnc2[nH]ccc12 [CP690550] (first compound 2 µM, partner dose 1 µM), the “cleaved PARP positive nuclei fraction” value was determined as 83.2%.
For the compound `C=C(c1ccc(C(=O)O)cc1)c1cc2c(cc1C)C(C)(C)CCC2(C)C` [Bexarotene] + Cc1ccc(NC(=O)c2cccc(N(C)C)c2)cc1NC(=O)c1ccc(O)cc1 [ZM336372] (first compound 2 µM, partner dose 2 µM), the “cleaved PARP positive nuclei fraction” value turned out to be 165%.
Still for that read-out and setting: next, `Cc1cc(Nc2cc(N3CCN(C)CC3)nc(/C=C/c3ccccc3)n2)n[nH]1` + CO[C@@H]1[C@H](N(C)C(=O)c2ccccc2)C[C@H]2O[C@]1(C)n1c3ccccc3c3c4c(c5c6ccccc6n2c5c31)C(=O)NC4 [Midostaurin] (first compound 0.04 µM, partner dose 0.08 µM): 105%.

For another assay, the system named is COLO792. The assay is described as above. To be noted: library dose: low library concentration; 72 h.
For `Nc1ncn([C@H]2C[C@H](O)[C@@H](CO)O2)c(=O)n1` [decitabine] + Cc1cc(N2CCOCC2)cc2[nH]c(-c3c(NC[C@@H](O)c4cccc(Cl)c4)cc[nH]c3=O)nc12 [BMS536924] (first compound 0.1 µM, partner dose 0.2 µM), the “cleaved PARP positive nuclei fraction” value came to 98.5%.
Consider `Cn1c(=O)n(-c2ccc(C(C)(C)C#N)cc2)c2c3cc(-c4cnc5ccccc5c4)ccc3ncc21` + NCC(=O)Nc1ccc(-n2nc(C(F)(F)F)cc2-c2ccc3c(ccc4ccccc43)c2)cc1 [OSU03012] (first compound 0.004 µM, partner dose 1 µM), for which the “cleaved PARP positive nuclei fraction” value was found to be 109%.
On to `CS(=O)(=O)CCNCc1ccc(-c2ccc3ncnc(Nc4ccc(OCc5cccc(F)c5)c(Cl)c4)c3c2)o1` [lapatinib] + O=C(Nc1cccc(Cl)c1)Nc1ncc(CCNc2ncnc3ccsc23)s1 [SNS314] (first compound 0.8 µM, partner dose 0.0008 µM), for which the “cleaved PARP positive nuclei fraction” value was determined as 129%.
On the same count and under the same terms, next, `CN1CCN(c2ccc3nc(-c4c(N)c5c(F)cccc5[nH]c4=O)[nH]c3c2)CC1` [Dovitinib] + CN(C)S(=O)(=O)c1ccc2c(c1)/C(=C/c1cc3c([nH]1)CCCC3)C(=O)N2 [SU6656] (first compound 0.1 µM, partner dose 0.4 µM): 111%; `C[C@@H](Oc1cc(-c2cnn(C3CCNCC3)c2)cnc1N)c1c(Cl)ccc(F)c1Cl` [Crizotinib] + Cn1cncc1[C@@](N)(c1ccc(Cl)cc1)c1ccc2c(c1)c(-c1cccc(Cl)c1)cc(=O)n2C [tipifarnib] (first compound 0.2 µM, partner dose 0.01 µM): 67.9%.
For the compound `CO[C@H]1C[C@@H]2CC[C@@H](C)[C@@](O)(O2)C(=O)C(=O)N2CCCC[C@H]2C(=O)O[C@H]([C@H](C)C[C@@H]2CC[C@@H](OCCO)[C@H](OC)C2)CC(=O)[C@H](C)/C=C(\C)[C@@H](O)[C@@H](OC)C(=O)[C@H](C)C[C@H](C)/C=C/C=C/C=C/1C` [everolimus] + O=C(Nc1cccc(Cl)c1)Nc1ncc(CCNc2ncnc3ccsc23)s1 [SNS314] (first compound 0.02 µM, partner dose 0.0008 µM), the “cleaved PARP positive nuclei fraction” value came out at 341%.
On the same count and under the same terms, next, `O=C(O)c1ccc2c(c1)nc(Nc1cccc(Cl)c1)c1ccncc12` + NC(=O)Nc1cc(-c2cccc(F)c2)sc1C(=O)N[C@H]1CCCNC1 [AZD7762] (first compound 0.4 µM, partner dose 0.02 µM): 88%.
The same measure, in the same setting: next, `Cn1c(=O)n(-c2ccc(C(C)(C)C#N)cc2)c2c3cc(-c4cnc5ccccc5c4)ccc3ncc21` + O=C(O)c1ccc(-c2c[nH]c3ncc(-c4ccccc4)cc23)cc1C1CCCC1 [GSK650394] (first compound 0.004 µM, partner dose 0.16 µM): 84.9%.
With `O=C(O)c1ccc2c(c1)nc(Nc1cccc(Cl)c1)c1ccncc12` + O=C(O)c1ccc(-c2c[nH]c3ncc(-c4ccccc4)cc23)cc1C1CCCC1 [GSK650394] (first compound 0.4 µM, partner dose 0.16 µM), the “cleaved PARP positive nuclei fraction” value amounted to 63.7%.
Regarding `CC(C)C[C@H](NC(=O)[C@H](Cc1ccccc1)NC(=O)c1cnccn1)B(O)O` [Bortezomib] + O=C(CCCCCCC(=O)Nc1ccccc1)NO [vorinostat] (first compound 0.001 µM, partner dose 0.08 µM), the “cleaved PARP positive nuclei fraction” value was 147%.
As for `O=C(O)c1ccc2c(c1)nc(Nc1cccc(Cl)c1)c1ccncc12` + O=C(Nc1cccc(Cl)c1)Nc1ncc(CCNc2ncnc3ccsc23)s1 [SNS314] (first compound 0.4 µM, partner dose 0.0008 µM), the “cleaved PARP positive nuclei fraction” value is 89.4%.
On the same count and under the same terms, next, `Nc1nc(F)nc2c1ncn2[C@@H]1O[C@H](CO)[C@@H](O)[C@@H]1O` [fludarabine] + C=CCn1c(=O)c2cnc(Nc3ccc(N4CCN(C)CC4)cc3)nc2n1-c1cccc(C(C)(C)O)n1 [MK1775] (first compound 0.2 µM, partner dose 0.02 µM): 30.1%.
As to `Nc1ccn([C@@H]2O[C@H](CO)[C@@H](O)C2(F)F)c(=O)n1` [gemcitabine] + COc1cc(Nc2ncc(F)c(Nc3ccc4c(n3)NC(=O)C(C)(C)O4)n2)cc(OC)c1OC [Tamatinib] (first compound 0.0004 µM, partner dose 0.4 µM), the “cleaved PARP positive nuclei fraction” value came out at 176%.
Still for that read-out and setting: next, `Cn1c(=O)n(-c2ccc(C(C)(C)C#N)cc2)c2c3cc(-c4cnc5ccccc5c4)ccc3ncc21` + COc1cc2c(Oc3ccc4[nH]c(C)cc4c3F)ncnc2cc1OCCCN1CCCC1 [cediranib] (first compound 0.004 µM, partner dose 0.4 µM): 51.8%; `Cc1cc(Nc2cc(N3CCN(C)CC3)nc(/C=C/c3ccccc3)n2)n[nH]1` + NC(=O)Nc1cc(-c2cccc(F)c2)sc1C(=O)N[C@H]1CCCNC1 [AZD7762] (first compound 0.04 µM, partner dose 0.02 µM): 112%; `Nc1nc(F)nc2c1ncn2[C@@H]1O[C@H](CO)[C@@H](O)[C@@H]1O` [fludarabine] + O=C(Nc1cccc(Cl)c1)Nc1ncc(CCNc2ncnc3ccsc23)s1 [SNS314] (first compound 0.2 µM, partner dose 0.0008 µM): 117%.
With `CS(=O)(=O)CCNCc1ccc(-c2ccc3ncnc(Nc4ccc(OCc5cccc(F)c5)c(Cl)c4)c3c2)o1` [lapatinib] + CN(NC(=O)CC(=O)NN(C)C(=S)c1ccccc1)C(=S)c1ccccc1 [STA4783] (first compound 0.8 µM, partner dose 0.006 µM), the “cleaved PARP positive nuclei fraction” value was found to be 69.4%.
Take `CC(C)C[C@H](NC(=O)[C@H](Cc1ccccc1)NC(=O)c1cnccn1)B(O)O` [Bortezomib] + CO[C@@H]1[C@H](N(C)C(=O)c2ccccc2)C[C@H]2O[C@]1(C)n1c3ccccc3c3c4c(c5c6ccccc6n2c5c31)C(=O)NC4 [Midostaurin] (first compound 0.001 µM, partner dose 0.08 µM): the “cleaved PARP positive nuclei fraction” value was found to be 68.2%.
